This is one part of the list. Most values lie at the level of the controls, where differences are scatter.
compound: CN[C@@H]1C[C@H]2O[C@@](C)([C@@H]1OC)n1c3ccccc3c3c4c(c5c6ccccc6n2c5c31)C(=O)NC4 [staurosporine]; assay: log2 fold change of tryptic peptide abundance, ligand vs vehicle (limited proteolysis) (log2 ratio); higher = more trypsin-susceptible (destabilized); conditions: ligand concentration: 20 uM; sample: mouse liver crude lysate; replicate design: treated separately

The chains behind the UniProt entries cited, without tags or fusion partners. Where a name states a change or a piece, a line headed by the entry shows the natural chain unless it says otherwise.
UniProt Q9DCL8: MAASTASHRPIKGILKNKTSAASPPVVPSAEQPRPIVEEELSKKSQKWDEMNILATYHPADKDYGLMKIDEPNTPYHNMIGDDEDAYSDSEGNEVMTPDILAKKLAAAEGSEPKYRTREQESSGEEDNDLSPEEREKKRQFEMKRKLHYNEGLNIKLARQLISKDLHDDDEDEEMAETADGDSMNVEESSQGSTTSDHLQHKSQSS
UniProt Q9DBB9: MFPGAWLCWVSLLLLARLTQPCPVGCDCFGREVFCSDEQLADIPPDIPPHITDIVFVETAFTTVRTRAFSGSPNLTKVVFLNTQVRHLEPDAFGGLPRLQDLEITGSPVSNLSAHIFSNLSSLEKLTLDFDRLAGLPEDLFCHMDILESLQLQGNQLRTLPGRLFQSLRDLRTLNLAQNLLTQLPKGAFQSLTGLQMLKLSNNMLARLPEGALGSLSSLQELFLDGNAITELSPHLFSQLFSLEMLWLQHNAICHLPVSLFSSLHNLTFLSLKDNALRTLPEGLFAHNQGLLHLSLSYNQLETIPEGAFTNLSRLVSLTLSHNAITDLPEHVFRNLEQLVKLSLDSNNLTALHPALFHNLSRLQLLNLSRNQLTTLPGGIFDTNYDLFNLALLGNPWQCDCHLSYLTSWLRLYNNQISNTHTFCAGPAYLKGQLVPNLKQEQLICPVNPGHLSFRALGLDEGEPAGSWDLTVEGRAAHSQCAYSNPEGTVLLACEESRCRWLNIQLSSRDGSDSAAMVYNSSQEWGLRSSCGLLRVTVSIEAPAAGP
UniProt Q9DAW9: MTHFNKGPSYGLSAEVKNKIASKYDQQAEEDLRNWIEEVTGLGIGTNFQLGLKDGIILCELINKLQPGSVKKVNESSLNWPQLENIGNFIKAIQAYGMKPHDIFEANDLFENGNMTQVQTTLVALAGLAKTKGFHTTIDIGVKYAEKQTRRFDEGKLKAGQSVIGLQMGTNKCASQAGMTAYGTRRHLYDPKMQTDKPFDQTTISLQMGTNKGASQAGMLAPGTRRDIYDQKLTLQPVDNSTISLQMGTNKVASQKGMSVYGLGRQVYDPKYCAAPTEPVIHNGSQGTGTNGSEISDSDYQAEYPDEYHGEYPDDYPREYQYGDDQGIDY
UniProt Q9DB26: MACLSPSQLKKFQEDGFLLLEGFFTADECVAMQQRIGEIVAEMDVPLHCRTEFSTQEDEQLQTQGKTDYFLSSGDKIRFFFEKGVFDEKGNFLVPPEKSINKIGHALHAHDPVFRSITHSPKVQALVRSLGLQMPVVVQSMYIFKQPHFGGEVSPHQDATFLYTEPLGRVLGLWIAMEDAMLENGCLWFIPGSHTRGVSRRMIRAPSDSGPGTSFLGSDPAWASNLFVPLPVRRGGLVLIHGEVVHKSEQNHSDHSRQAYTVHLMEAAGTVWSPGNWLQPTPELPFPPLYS
UniProt Q9DBN1: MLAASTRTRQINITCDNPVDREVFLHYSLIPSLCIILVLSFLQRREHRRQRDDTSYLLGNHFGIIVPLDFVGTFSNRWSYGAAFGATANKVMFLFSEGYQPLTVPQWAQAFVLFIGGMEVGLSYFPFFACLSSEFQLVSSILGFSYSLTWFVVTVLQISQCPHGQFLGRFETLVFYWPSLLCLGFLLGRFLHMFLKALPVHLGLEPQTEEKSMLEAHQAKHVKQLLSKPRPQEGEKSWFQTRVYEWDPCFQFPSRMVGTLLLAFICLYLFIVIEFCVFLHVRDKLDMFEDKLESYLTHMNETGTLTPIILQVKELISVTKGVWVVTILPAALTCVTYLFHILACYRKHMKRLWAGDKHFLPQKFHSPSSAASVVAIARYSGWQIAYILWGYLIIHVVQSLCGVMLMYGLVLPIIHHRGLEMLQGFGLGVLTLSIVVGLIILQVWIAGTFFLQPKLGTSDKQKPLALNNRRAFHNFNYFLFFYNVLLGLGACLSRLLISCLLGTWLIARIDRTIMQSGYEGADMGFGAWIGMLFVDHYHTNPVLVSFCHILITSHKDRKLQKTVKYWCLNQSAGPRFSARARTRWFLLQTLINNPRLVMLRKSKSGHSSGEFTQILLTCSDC
UniProt Q9EPQ7, whole entry: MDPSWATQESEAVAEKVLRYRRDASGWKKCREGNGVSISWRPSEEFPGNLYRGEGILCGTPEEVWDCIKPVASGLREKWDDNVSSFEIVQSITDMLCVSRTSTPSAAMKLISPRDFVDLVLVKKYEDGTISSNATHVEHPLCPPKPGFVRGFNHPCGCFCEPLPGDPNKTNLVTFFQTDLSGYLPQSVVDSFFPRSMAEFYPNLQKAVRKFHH
UniProt Q9DBQ7: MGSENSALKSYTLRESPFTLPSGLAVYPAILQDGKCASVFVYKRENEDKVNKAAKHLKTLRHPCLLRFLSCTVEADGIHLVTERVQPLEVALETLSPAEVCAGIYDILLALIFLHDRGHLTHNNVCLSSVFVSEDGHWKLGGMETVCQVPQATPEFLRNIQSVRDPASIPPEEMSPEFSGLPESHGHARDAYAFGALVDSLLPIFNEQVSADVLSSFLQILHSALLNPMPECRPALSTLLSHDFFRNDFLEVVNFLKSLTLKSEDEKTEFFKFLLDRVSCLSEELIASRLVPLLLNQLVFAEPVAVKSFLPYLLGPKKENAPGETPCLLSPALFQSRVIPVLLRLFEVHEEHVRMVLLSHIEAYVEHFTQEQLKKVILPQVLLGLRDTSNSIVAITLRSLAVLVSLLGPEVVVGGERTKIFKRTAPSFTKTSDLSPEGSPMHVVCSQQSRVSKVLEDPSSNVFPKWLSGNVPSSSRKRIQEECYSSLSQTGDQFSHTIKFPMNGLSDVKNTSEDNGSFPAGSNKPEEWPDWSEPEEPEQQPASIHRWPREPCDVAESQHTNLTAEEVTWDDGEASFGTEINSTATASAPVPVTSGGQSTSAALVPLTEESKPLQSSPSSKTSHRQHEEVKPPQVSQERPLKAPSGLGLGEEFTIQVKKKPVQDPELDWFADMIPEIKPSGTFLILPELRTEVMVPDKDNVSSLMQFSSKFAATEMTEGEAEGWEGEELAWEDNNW
UniProt Q9DBY1, whole entry: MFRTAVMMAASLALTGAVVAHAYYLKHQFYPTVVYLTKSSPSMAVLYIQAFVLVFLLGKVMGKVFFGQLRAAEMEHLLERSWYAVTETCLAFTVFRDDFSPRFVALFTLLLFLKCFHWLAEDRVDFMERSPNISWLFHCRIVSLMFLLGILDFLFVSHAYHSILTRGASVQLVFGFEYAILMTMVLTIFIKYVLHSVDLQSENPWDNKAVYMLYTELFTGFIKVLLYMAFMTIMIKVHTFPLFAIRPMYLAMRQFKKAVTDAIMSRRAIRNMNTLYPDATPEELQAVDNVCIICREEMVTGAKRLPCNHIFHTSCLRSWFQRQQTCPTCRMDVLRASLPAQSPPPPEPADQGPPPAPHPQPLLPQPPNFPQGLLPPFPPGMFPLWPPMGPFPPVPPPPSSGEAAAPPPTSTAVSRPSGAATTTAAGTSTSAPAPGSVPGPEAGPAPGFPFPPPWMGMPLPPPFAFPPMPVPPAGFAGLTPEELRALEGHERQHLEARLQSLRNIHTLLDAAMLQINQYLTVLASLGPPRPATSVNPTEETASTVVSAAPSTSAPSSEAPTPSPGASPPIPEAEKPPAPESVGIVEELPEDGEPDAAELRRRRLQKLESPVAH

**Q.** “UniProt Q9DCL8 (peptide sequence: RKLHYNEGLNIK, peptide start residue: 145)” was tested. Which log2 fold change did it give?
**A.** 0.342

**Q.** How did the log2 fold change turn out when “UniProt Q9DBB9 (peptide sequence: HLEPDAFGGLPR, peptide start residue: 87)” was run?
**A.** -0.437

**Q.** For “UniProt Q9DAW9 (peptide sequence: TKGFHTTIDIGVK, peptide start residue: 131)”, which log2 fold change is on record?
**A.** -0.397

**Q.** For “UniProt Q9DB26 (peptide sequence: IGEIVAEMDVPLHCR, peptide start residue: 36)”, which log2 fold change is on record?
**A.** -0.411

**Q.** How did the log2 fold change turn out when “UniProt Q9DBN1 (peptide sequence: QLLSKPRPQEGEK, peptide start residue: 224)” was run?
**A.** 0.527

**Q.** Which log2 fold change does the source give for “UniProt Q9EPQ7 (peptide sequence: TSTPSAAMK, peptide start residue: 101)” here?
**A.** -0.373

**Q.** For “UniProt Q9DBQ7 (peptide sequence: LFEVHEEHVR, peptide start residue: 345)”, which log2 fold change is on record?
**A.** 0.339

**Q.** How did the log2 fold change turn out when “UniProt Q9DBY1 (peptide sequence: EEMVTGAK, peptide start residue: 296)” was run?
**A.** -0.314

From the supplement of paper PMC12819154, “High-throughput peptide-centric local stability assay extends protein–ligand identification to membrane proteins, tissues and bacteria” (Nature Structural & Molecular Biology, 2025)
